The values that follow come from ChEMBL document CHEMBL4303122, “Identification of potential treatments for COVID-19 through artificial intelligence-enabled phenomic analysis of human cells infected with SARS-CoV-2” (2020).

Where “and” joins values, the source holds several entries; their conditions need not be identical. Equal values may be shown once. In all, about 1,600 compounds were measured (“Hit score”: median about 0.13, highest 2% from about 0.46 on). The list shows a part of the results.

For this assay, the system named is SARS-CoV-2. The assay can be described thus: Antiviral activity against SARS-CoV-2 (USA-WA1/2020 strain) measured by imaging in HRCE cells at MOI 0.4 after 96 hrs (reported as hit score from 0-1 for on-disease vs off-disease activity: scores >0.6 considered hits). It counts as functional, Homo sapiens.
The compound `Clc1ccc(C(Cn2ccnc2)OCc2csc3c(Cl)cccc23)c(Cl)c1` (stereo not given) [SERTACONAZOLE] displayed a Hit score of 0.03803.

Compound `COC(=O)c1csc(C(=O)c2c[nH]c3ccccc23)n1` displayed a Hit score of 0.2485.

The compound `Cc1nc2n(c(=O)c1CCN1CCC(c3noc4cc(F)ccc34)CC1)CCCC2O` (stereo not given) [PALIPERIDONE] registered a Hit score of 0.1513.

Regarding `CCC(C)n1ncn(-c2ccc(N3CCN(c4ccc(OCC5COC(Cn6cncn6)(c6ccc(Cl)cc6Cl)O5)cc4)CC3)cc2)c1=O` (stereo not given) [ITRACONAZOLE], the Hit score was found to be 0.05218.

For the compound `CCOc1cc(N)c(Cl)cc1C(=O)NCC1CN(Cc2ccc(F)cc2)CCO1` (stereo not given) [MOSAPRIDE], the Hit score came to 0.2146.

In the case of `CC(=O)OCC(=O)[C@@]12OC(C)(C)O[C@@H]1C[C@H]1[C@@H]3C[C@H](F)C4=CC(=O)C=C[C@]4(C)[C@@]3(F)[C@@H](O)C[C@@]12C` [FLUOCINONIDE], the Hit score is recorded as 0.1388.

`O=C(O)CCNC(=O)c1ccc(/N=N/c2ccc(O)c(C(=O)O)c2)cc1` [BALSALAZIDE] came in with a Hit score of 0.1738.

Compound `O/N=C/c1cc[n+](COC[n+]2ccc(/C=N/O)cc2)cc1` [OBIDOXIME] gave a Hit score of 0.2635.

Take `CCN(CC)CCOc1ccccc1C(=O)CCc1ccccc1` [ETAFENONE]: the Hit score amounted to 0.08032.

On to `CNCCCN1c2ccccc2CCc2ccccc21` [DESIPRAMINE], for which the Hit score came out at 0.1518.

In the case of `Cc1ccsc1C(=CCCN1CCC[C@@H](C(=O)O)C1)c1sccc1C` [TIAGABINE], the Hit score stood at 0.1375.

The compound `C[n+]1ccccc1C=NO` [PRALIDOXIME] registered a Hit score of 0.02154.

For `O=C1OC(CN2CCOCC2)CN1/N=C/c1ccc([N+](=O)[O-])o1` (stereo not given) [FURALTADONE], the Hit score was found to be 0.1983.

As for `C[C@H]1Oc2cc(cnc2N)-c2c(nn(C)c2C#N)CN(C)C(=O)c2ccc(F)cc21` [LORLATINIB], the Hit score was found to be 0.2281.

Compound `C#CC1(O)CC[C@H]2[C@@H]3CCC4=CC(=O)CC[C@@H]4[C@H]3CC[C@@]21CC` (stereo not given in full) [NORGESTREL] yielded a Hit score of 0.2054.

With `Cn1c(=O)c2c(ncn2CCO)n(C)c1=O` [ETOFYLLINE], the Hit score is recorded as 0.07134.

`C#C[C@]1(O)CC[C@H]2[C@@H]3CCC4=C/C(=N/O)CC[C@@H]4[C@H]3CC[C@@]21CC` [NORELGESTROMIN] registered a Hit score of 0.07889.

In turn, `CC(C)NCC(O)COc1cccc2[nH]c3ccccc3c12` (stereo not given) [CARAZOLOL] came in with a Hit score of 0.4815.

For `CC(C)NCC(O)c1cc(O)cc(O)c1` (stereo not given) [METAPROTERENOL], the Hit score was -0.1316.

In turn, `CCCCCCCCCCCCCCCCCCCCCC(=O)Nc1ccn([C@@H]2O[C@H](CO)[C@@H](O)[C@@H]2O)c(=O)n1` [ENOCITABINE] yielded a Hit score of 0.3288.

Regarding `O=C(O)CCCCC1CCSS1` (stereo not drawn) [LIPOIC ACID, ALPHA], the Hit score is listed as 0.1647.

As for `CCN(CC)Cc1cc(Nc2ccnc3cc(Cl)ccc23)ccc1O` [AMODIAQUINE], the Hit score came to 0.1195.

On to `OC[C@H]1O[C@@H](n2cnc3c2N=CNC[C@H]3O)C[C@@H]1O` [PENTOSTATIN], for which the Hit score is 0.0932.

For the compound `CCCCCCCCCCCCCCCC(=O)O[C@@H]1[C@@H](O)[C@@H](O)[C@@H]([C@H](NC(=O)[C@@H]2C[C@@H](CCC)CN2C)[C@H](C)Cl)O[C@@H]1SC` [CLINDAMYCIN PALMITATE], the Hit score worked out at 0.1881.

Compound `CCNCC(O)c1cccc(O)c1` (stereo not given) [ETILEFRINE] came in with a Hit score of -0.03688.

With `CCOC(=O)N[C@@H]1CC[C@@H]2[C@@H](C1)C[C@H]1C(=O)O[C@H](C)[C@H]1[C@H]2/C=C/c1ccc(-c2cccc(F)c2)cn1` [VORAPAXAR], the Hit score is listed as 0.1452.

In the case of `CCC(O)(c1ccccc1)c1cccc(C(F)(F)F)c1` (stereo not given) [FLUMECINOL], the Hit score is listed as 0.1872.

`COc1nc(N)nc2c1ncn2[C@@H]1O[C@H](CO)[C@@H](O)[C@@H]1O` [NELARABINE] yielded a Hit score of 0.1307.

Turning to `COc1ccccc1N1CCN(CCCNc2cc(=O)n(C)c(=O)n2C)CC1`, the Hit score is given as 0.1524.

With `C[C@]1(COc2ccc(N3CCC(Oc4ccc(OC(F)(F)F)cc4)CC3)cc2)Cn2cc([N+](=O)[O-])nc2O1`, the Hit score came to 0.07377.

Compound `O=C1[C@H](CC[C@H](O)c2ccc(F)cc2)[C@@H](c2ccc(O)cc2)N1c1ccc(F)cc1` [EZETIMIBE] returned a Hit score of 0.04755.

In the case of `O=S(=O)(O)c1cc(I)c(O)c2ncccc12` [8-HYDROXY-7-IODO-5-QUINOLINESULFONIC ACID], the Hit score is 0.2325.

Consider `CC(=O)[C@@]1(O)CC[C@H]2[C@@H]3C[C@H](C)C4=CC(=O)C=C[C@]4(C)[C@@]3(F)[C@@H](O)C[C@@]21C` [FLUOROMETHOLONE], for which the Hit score was -0.1428.

In turn, `Cc1cnc(C(=O)NCCc2ccc(S(=O)(=O)NC(=O)NC3CCCCC3)cc2)cn1` [GLIPIZIDE] registered a Hit score of 0.0999.

`O=C(O)COCCN1CCN([C@H](c2ccccc2)c2ccc(Cl)cc2)CC1` [LEVOCETIRIZINE] had a Hit score of -0.05445.

Take `CNCC(O)c1ccc(O)cc1` (stereo not given) [OXEDRINE]: the Hit score is given as 0.07332.

`CC(COc1ccccc1Cc1ccccc1)N1CCCCC1` (stereo not given) [BENPROPERINE] registered a Hit score of 0.02777.

On to `COC(=O)C1=C(C)NC(C)=C(C(=O)OCC(C)C)C1c1ccccc1[N+](=O)[O-]` (stereo not given) [NISOLDIPINE], for which the Hit score is given as 0.4022.

Regarding `Oc1cc(O)c(Cl)cn1`, the Hit score is reported as 0.1623.

`CN1CCN(c2c(F)cc3c(=O)c(C(=O)O)cn4c3c2SCC4)CC1` [RUFLOXACIN]: the Hit score is listed as 0.2005.

Consider `OC[C@H]1O[C@@H](c2ccc(Cl)c(Cc3ccc(O[C@H]4CCOC4)cc3)c2)[C@H](O)[C@@H](O)[C@@H]1O` [EMPAGLIFLOZIN], for which the Hit score is reported as 0.03968.

In turn, `COC(=O)C1=C(C)NC(C)=C(C(=O)OCCN(C)Cc2ccccc2)C1c1cccc([N+](=O)[O-])c1` (stereo not given) [NICARDIPINE] returned a Hit score of 0.1855.

`Cc1ccccc1C(OCCN(C)C)c1ccccc1` (stereo not given) [ORPHENADRINE] came in with a Hit score of 0.07501.

The compound `O=C1C(O)=C([C@H]2CC[C@H](c3ccc(Cl)cc3)CC2)C(=O)c2ccccc21` [ATOVAQUONE] registered a Hit score of 0.1017.

As to `CNCc1cc(-c2ccccc2F)n(S(=O)(=O)c2cccnc2)c1` [VONOPRAZAN], the Hit score is listed as 0.1252.

Regarding `CC1(C)CCC[C@]2(C)[C@H]3CC(=O)O[C@]3(C)[C@@H](O)C[C@@H]12`, the Hit score was 0.05012.

Consider `CC(=O)[C@H]1CC[C@H]2[C@@H]3CC[C@H]4C[C@H](O)CC[C@]4(C)[C@H]3CC[C@]12C` [BREXANOLONE], for which the Hit score was 0.07305 and 0.1505.

Compound `C=CC1=C(C(=O)O)N2C(=O)[C@@H](NC(=O)/C(=N\OCC(=O)O)c3csc(N)n3)[C@H]2SC1` [CEFIXIME] displayed a Hit score of 0.1035.

With `CCCCC[C@H](O)/C=C/[C@@H]1[C@H]2C/C(=C/CCCC(=O)O)O[C@H]2C[C@H]1O` [EPOPROSTENOL], the Hit score is 0.02737.

In turn, `Cc1ccc(NC2=NCCN2)c(Cl)c1` [TOLONIDINE] gave a Hit score of 0.2301.

As to `NCCCC(N)(C(=O)O)C(F)F` (stereo not given) [EFLORNITHINE], the Hit score is given as 0.2258.

`C[C@]12CC[C@H]3[C@@H](CC[C@@]45O[C@@H]4C(O)=C(C#N)C[C@]35C)[C@@H]1CC[C@@H]2O` [TRILOSTANE]: the Hit score amounted to 0.3178.

In turn, `CCCCCCCCCCCC1=C(O)C(=O)C=C(O)C1=O` [EMBELIN] displayed a Hit score of 0.1645.

`NC(=O)NC1NC(=O)NC1=O` (stereo not given) [ALLANTOIN] had a Hit score of 0.1646.

`O=C1CCc2ccc(OCCCCN3CCN(c4cccc(Cl)c4Cl)CC3)cc2N1` [ARIPIPRAZOLE] displayed a Hit score of 0.05852.

In turn, `CN(C)CCOC(c1ccc(Cl)cc1)c1ccccn1` (stereo not given) [CARBINOXAMINE] registered a Hit score of 0.1089.

As to `CS(=O)(=O)O.O.O=C(O[C@@H]1C[C@@H]2C[C@H]3C[C@H](C1)N2CC3=O)c1c[nH]c2ccccc12` [DOLASETRON MESYLATE], the Hit score worked out at 0.1048.

`CC/C(=C(\c1ccccc1)c1ccc(OCCN(C)C)cc1)c1ccccc1` [TAMOXIFEN] yielded a Hit score of 0.04997.

For the compound `NCc1ccc(S(N)(=O)=O)cc1` [MAFENIDE], the Hit score stood at 0.194.

Turning to `C[N+]1(CC2CC2)[C@@H]2C[C@@H](OC(=O)[C@H](CO)c3ccccc3)C[C@H]1[C@@H]1O[C@@H]12` (stereo not given in full) [CIMETROPIUM], the Hit score was determined as 0.08586.

Take `CCOC(=O)[N-]c1c[n+](N2CCOCC2)no1` [MOLSIDOMINE]: the Hit score is 0.2896.

For the compound `CC[N+](CC)(CC)CCOc1cccc(OCC[N+](CC)(CC)CC)c1OCC[N+](CC)(CC)CC` [GALLAMINE], the Hit score was 0.08324.

As to `C=C(c1ccc(C(=O)O)cc1)c1cc2c(cc1C)C(C)(C)CCC2(C)C` [BEXAROTENE], the Hit score is given as 0.3402.

As to `COc1cc2ncnc(Nc3ccc(F)c(Cl)c3)c2cc1OCCCN1CCOCC1` [GEFITINIB], the Hit score worked out at 0.178.

In the case of `CC(C)[C@H](N)C(=O)OCC(CO)OCn1cnc2c(=O)[nH]c(N)nc21` (stereo not given in full) [VALGANCICLOVIR], the Hit score turned out to be 0.1497.

Compound `CC[C@@H]([C@H](C)O)n1ncn(-c2ccc(N3CCN(c4ccc(OC[C@@H]5CO[C@@](Cn6cncn6)(c6ccc(F)cc6F)C5)cc4)CC3)cc2)c1=O` [POSACONAZOLE] came in with a Hit score of 0.1108.

Turning to `CCN1CCC[C@H]1CNC(=O)c1c(O)c(Cl)cc(Cl)c1OC` [RACLOPRIDE], the Hit score stood at 0.02798.

`CCc1ccc(C(=O)C(C)CN2CCCCC2)cc1` (stereo not given) [EPERISONE]: the Hit score is recorded as 0.4436.

`CC(C)Cc1ccc(C(C)C(=O)O)cc1` (stereo not given) [IBUPROFEN] registered a Hit score of 0.09253.

`COc1ccc(CN2CCN(C(c3ccc(F)cc3)c3ccc(F)cc3)CC2)c(OC)c1OC` [LOMERIZINE] gave a Hit score of -0.04979.
